Measurements reported in PubChem BioAssay AID743121 (NCATS, 2013).

Aim: 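Partners whose loss is lethal together with topoisomerase I blockade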 (primary screen)
Cells: MDA-MB-231 cells, a human breast cancer line
Reagent: single siRNA against human genes, 20 nM siRNA (0.8 pmol per well)
Timing: 120 h (drug added 48 h after transfection, read 72 h later)
Conditions: camptothecin 20 nM (about EC30) for 72 h; vehicle 0.1% DMSO in parallel plates
Measurement: 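Cell viability by ATP luminescence (CellTiter-Glo) as % of non-targeting siRNA wells, and the log2 ratio of viability without drug over viability with camptothecin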
Reading the numbers: log2 vehicle/camptothecin viability: higher = stronger sensitisation to camptothecin; viability with camptothecin: higher = more viable cells
Units: viability with camptothecin in % of control
Call rule: 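Each gene scored by redundant siRNA activity (RSA) over its individual siRNA ratios; a gene is called active at p < 0.001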
Shown is a random part of about 26,000 deposited reagents. 167 of them (0.63%) were called active. 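Calls are per gene from RSA p-values that are not deposited; an individual active-marked siRNA can sensitise only weakly.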 A number with no mark means an inactive call. Reagents against one gene are numbered here. Further read-outs or replicates are left out here.

How did the screen score SHOC2 #1?
log2 vehicle/camptothecin viability: -0.241; viability with camptothecin: 100

What is on record for SHOC2 #2?
log2 vehicle/camptothecin viability: 0.409; viability with camptothecin: 20.3

What is on record for SHOC2 #3?
log2 vehicle/camptothecin viability: -0.26; viability with camptothecin: 75.8

What is on record for SHOC2 #4?
log2 vehicle/camptothecin viability: -0.543; viability with camptothecin: 88.1

With AKAP4 #1, what does the deposit list?
log2 vehicle/camptothecin viability: -0.174; viability with camptothecin: 118

For AKAP4 #2, what does the deposit list?
log2 vehicle/camptothecin viability: -0.243; viability with camptothecin: 110

What did the screen give for AKAP4 #3?
log2 vehicle/camptothecin viability: -0.0135; viability with camptothecin: 53.8

What did the screen give for AKAP4 #4?
log2 vehicle/camptothecin viability: -0.326; viability with camptothecin: 93.3

For FBXO22 #1, what does the deposit list?
log2 vehicle/camptothecin viability: -0.221; viability with camptothecin: 80.3

For FBXO22 #2, what does the deposit list?
log2 vehicle/camptothecin viability: -0.376; viability with camptothecin: 74.6

What is on record for FBXO22 #3?
log2 vehicle/camptothecin viability: -0.271; viability with camptothecin: 93.3

How did the screen score FBXO22 #4?
log2 vehicle/camptothecin viability: -0.37; viability with camptothecin: 69.7

With CHRNA3 #1, what was measured?
log2 vehicle/camptothecin viability: 0.00791; viability with camptothecin: 93.6

For CHRNA3 #2, what does the deposit list?
log2 vehicle/camptothecin viability: 0.822; viability with camptothecin: 50

With CHRNA3 #3, what does the deposit list?
log2 vehicle/camptothecin viability: 0.374; viability with camptothecin: 33.6

How did the screen score CHRNA3 #4?
log2 vehicle/camptothecin viability: -0.14; viability with camptothecin: 90.5

With LPAR2 #1, what does the deposit list?
log2 vehicle/camptothecin viability: -0.386; viability with camptothecin: 69.2

For LPAR2 #2, how do the results read?
log2 vehicle/camptothecin viability: -0.00977; viability with camptothecin: 52.2

How did the screen score LPAR2 #3?
log2 vehicle/camptothecin viability: -0.088; viability with camptothecin: 111

With LPAR2 #4, how do the results read?
log2 vehicle/camptothecin viability: -0.323; viability with camptothecin: 61.1

Which result is listed for RGS17 #1?
log2 vehicle/camptothecin viability: 0.0818; viability with camptothecin: 98.2

For RGS17 #2, what does the deposit list?
log2 vehicle/camptothecin viability: -0.197; viability with camptothecin: 102

For RGS17 #3, what does the deposit list?
log2 vehicle/camptothecin viability: 0.113; viability with camptothecin: 85.2

For RGS17 #4, what does the deposit list?
log2 vehicle/camptothecin viability: -0.491; viability with camptothecin: 85.7

For CD7 #1, what was measured?
log2 vehicle/camptothecin viability: -0.321; viability with camptothecin: 66.6

What is on record for CD7 #2?
log2 vehicle/camptothecin viability: -0.499; viability with camptothecin: 90.2

With CD7 #3, what does the deposit list?
log2 vehicle/camptothecin viability: -0.217; viability with camptothecin: 83.1

Which result is listed for CD7 #4?
log2 vehicle/camptothecin viability: 0.755; viability with camptothecin: 7.67

With RAB5C #1, what was measured?
log2 vehicle/camptothecin viability: -0.231; viability with camptothecin: 81.5

How did the screen score RAB5C #2?
log2 vehicle/camptothecin viability: 0.078; viability with camptothecin: 45.6

What did the screen give for RAB5C #3?
log2 vehicle/camptothecin viability: -0.392; viability with camptothecin: 107

Which result is listed for RAB5C #4?
log2 vehicle/camptothecin viability: -0.458; viability with camptothecin: 40.5

Which result is listed for FAM234B #1?
log2 vehicle/camptothecin viability: -0.0619; viability with camptothecin: 83.2

With FAM234B #2, how do the results read?
log2 vehicle/camptothecin viability: -0.25; viability with camptothecin: 94.9

How did the screen score FAM234B #3?
log2 vehicle/camptothecin viability: -0.25; viability with camptothecin: 91.7

With FAM234B #4, how do the results read?
log2 vehicle/camptothecin viability: 0.0888; viability with camptothecin: 81.4

6 of these entries, reformatted.
gene,reagent,log2 vehicle/camptothecin viability,viability with camptothecin
CHRNA3,3,0.374,33.6
CHRNA3,4,-0.14,90.5
LPAR2,1,-0.386,69.2
LPAR2,2,-0.00977,52.2
LPAR2,3,-0.088,111
LPAR2,4,-0.323,61.1
